According to PubChem BioAssay AID1259415 (National Center for Advancing Translational Sciences (NCATS), 2018):
The whole screen tested about 410,000 compounds, of which about 18,000 (4.4%) were called active. The shares of active, inactive and inconclusive entries below differ from those in the screen. Rule as the data show it: active = activity change below about -60%; inconclusive = no clear call, values can overlap the other calls; inactive = above about -39%.

experiment: qHTS Assay for inhibitors of the human cytomegalovirus (HCMV); settings: HFF cells, HCMV-luciferase reporter, 72 h; at 57.5 µM; stronger effect = lower value
How it was run: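 Inhibition of viral replication was scored as loss of reporter luminescence in HFFs infected with HCMV-luciferase (MOI 1 PFU/cell) for 72 h; compounds tested at 2 doses, normalized to buffer and Salinomycin controls.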
% is scaled to controls: 0 for no effect and ±100 for the full control effect.

SMILES | activity change, negative = inhibition
Cc1ccc(-c2nc(-c3ccccc3)no2)c(Cl)c1 | active: -79.4%
Cc1ccc(-n2ncc3c(=O)[nH]c(SC(C)C)nc32)cc1 | active: -95.6%
CC(C)(C)OC(=O)NCCCC[C@@H](C(=O)N1CCN(C(=O)OC(C)(C)C)CC1)n1cc(C(CO)NC(=O)OC(C)(C)C)nn1 (stereo partly specified) | inconclusive: -41.7%
CCN(CC)CCn1c(SCC(=O)NCCC2=CCCCC2)nc2c(sc3ccccc32)c1=O | inconclusive: -41.4%
COc1ccc2c(c1)[C@H]1[C@H](CO2)[C@H](c2ccccc2)[C@]2(C)C(=O)Nc3cc(OC)c(OC)cc3C(=O)N12 | inconclusive: -48.9%
Cc1ccccc1NC(=O)c1cccc2nc3ccccc3nc12 | active: -73.2%
Cc1ccc(NC(=O)CCCn2c(=O)c3cccn3c3ccccc32)cc1C | inconclusive: -47.4%
CC1CN(S(=O)(=O)c2cccc(C(=O)NCCC3=CCCCC3)c2)CC(C)O1 (stereo unspecified) | inactive: -26.7%
O=c1oc2ccccc2n1Cc1cccc(F)c1 | inconclusive: -52.4%
COc1cc2c(cc1OC)C(C)N(CC(=O)Nc1ccc(S(=O)(=O)N3CCCC3)cc1)CC2 (stereo unspecified) | inconclusive: -41.5%
O=C(c1cccs1)N1CCCC(c2nc3c(nnn3Cc3ccccc3Cl)c(=O)[nH]2)C1 (stereo unspecified) | inactive: 10.7%
Clc1ccc(CN2CCC(CNc3ncnc4onc(-c5ccc(Cl)cc5)c34)CC2)cc1 | inconclusive: -58.8%
O=C(CSCc1ccc(F)cc1)N1CCN(c2ccc(Cl)cc2)CC1 | inconclusive: -54.8%
O=C(CSc1ccccc1F)NC1CCS(=O)(=O)C1 (stereo unspecified) | active: -105%
COC(=O)C1=C(c2ccc(OCc3ccccc3)c(F)c2)C[C@@H]2CC[C@H]1N2C | inconclusive: -53.9%
CC(C(=O)NN=C(c1ccccc1)c1ccccc1)N1CCOCC1 (stereo unspecified) | inconclusive: -45%
COc1ccc(/C=C/C(=O)NC(=S)N2C[C@H]3C[C@H](C2)c2cccc(=O)n2C3)cc1OC | inactive: -9.92%
CC(=O)Nc1ccc(S(=O)(=O)NCCSCc2c(Cl)cccc2Cl)cc1 | inconclusive: -46.3%
COC(=O)c1c(C(=O)OC)c(-c2cccc(Cl)c2)n2c1CS(=O)C2 (stereo unspecified) | inconclusive: -45.1%

SMILES | activity change, negative = inhibition
COc1ccccc1C(=O)N(Cc1nc(-c2ccc(Cl)cc2)no1)C(C)C | inactive: -18.3%
CC1(c2nnc(Cc3ccccc3)o2)CC(c2ccccc2F)=NO1 (stereo unspecified) | inactive: 4.15%
Cc1ccc(OCC(=O)Nc2cccc(-c3nc4ccccc4o3)c2C)cc1C | active: -60.1%
N#Cc1ccsc1NC(=O)c1ccc(Cl)c([N+](=O)[O-])c1 | inactive: -27.4%
Cc1ccc2c(c1)c(/C=C/c1cc[n+](C)cc1)c(C)n2C | active: -97.7%
c1nc(N2CCOCC2)c2[nH]cnc2n1 | inactive: -0.17%
COc1cc(/C=C/C(=O)OCC(=O)Nc2cc(S(=O)(=O)N3CCOCC3)ccc2Cl)cc(OC)c1OC | inconclusive: -55.1%
Cn1c(NCC(O)c2ccccc2)nc2c1c(=O)n(Cc1ccc(Cl)c(Cl)c1)c(=O)n2C (stereo unspecified) | inconclusive: -46.6%
Cn1c(C(=O)N2CCCC(C(=O)NCCc3ccccc3)C2)cc2sccc21 (stereo unspecified) | active: -97.3%
Cc1cc(OCC(=O)NCC(c2ccc(F)cc2)N2CCOCC2)ccc1Cl (stereo unspecified) | inactive: -2.29%
CCc1ccc(C(=O)COC(=O)c2cccs2)cc1 | inactive: 23.6%
Cc1cnc(NC(=O)CC(C)c2ccccc2)s1 (stereo unspecified) | active: -67.6%
COc1cc(OC)c(OC)cc1/C=C/c1nc2cc3ccccc3cc2c(=O)n1-c1ccc(F)c(Cl)c1 | inactive: 11%
CCc1c(C)nc(SCc2nc(-c3ccccc3)no2)[nH]c1=O | inactive: -37.5%
O=S(=O)(Cc1ccccc1)N1CCc2ccccc2C1 | inconclusive: -41.2%
Oc1ccc(-c2csc(Nc3ncccn3)n2)c(O)c1 | inactive: 300%
Cc1nn(C)c(C)c1S(=O)(=O)N1CCCC(C(=O)N2CCN(c3ccccc3)CC2)C1 (stereo unspecified) | inconclusive: -41.5%
CCCCCC[n+]1ccccc1/C=C/c1ccc(N(C)C)cc1 | active: -97.4%
O=c1c2cc(NC(=S)NC3CCCC3)ccc2nc2n1CCCCC2 | inconclusive: -46.1%

Shown tab-delimited: entries from further up
SMILES	activity change, negative = inhibition
COc1ccccc1C(=O)N(Cc1nc(-c2ccc(Cl)cc2)no1)C(C)C	inactive: -18.3%
CC1(c2nnc(Cc3ccccc3)o2)CC(c2ccccc2F)=NO1 (stereo unspecified)	inactive: 4.15%
Cc1ccc(OCC(=O)Nc2cccc(-c3nc4ccccc4o3)c2C)cc1C	active: -60.1%
N#Cc1ccsc1NC(=O)c1ccc(Cl)c([N+](=O)[O-])c1	inactive: -27.4%
Cc1ccc2c(c1)c(/C=C/c1cc[n+](C)cc1)c(C)n2C	active: -97.7%
c1nc(N2CCOCC2)c2[nH]cnc2n1	inactive: -0.17%
COc1cc(/C=C/C(=O)OCC(=O)Nc2cc(S(=O)(=O)N3CCOCC3)ccc2Cl)cc(OC)c1OC	inconclusive: -55.1%
Cn1c(NCC(O)c2ccccc2)nc2c1c(=O)n(Cc1ccc(Cl)c(Cl)c1)c(=O)n2C (stereo unspecified)	inconclusive: -46.6%
Cn1c(C(=O)N2CCCC(C(=O)NCCc3ccccc3)C2)cc2sccc21 (stereo unspecified)	active: -97.3%
Cc1cc(OCC(=O)NCC(c2ccc(F)cc2)N2CCOCC2)ccc1Cl (stereo unspecified)	inactive: -2.29%
CCc1ccc(C(=O)COC(=O)c2cccs2)cc1	inactive: 23.6%
Cc1cnc(NC(=O)CC(C)c2ccccc2)s1 (stereo unspecified)	active: -67.6%
COc1cc(OC)c(OC)cc1/C=C/c1nc2cc3ccccc3cc2c(=O)n1-c1ccc(F)c(Cl)c1	inactive: 11%
CCc1c(C)nc(SCc2nc(-c3ccccc3)no2)[nH]c1=O	inactive: -37.5%
O=S(=O)(Cc1ccccc1)N1CCc2ccccc2C1	inconclusive: -41.2%

(list continues)

SMILES | activity change, negative = inhibition
CCCCC(=O)N1CCCC(C)C1 (stereo unspecified) | inconclusive: -43.9%
Nc1nc2c(ncn2C2CCCC2)c(=O)[nH]1 | inactive: 7.68%
CCC1(c2ccccc2)ON(c2c(Br)cccc2Br)C1=O (stereo unspecified) | inconclusive: -48.4%
NC(=O)C1CCN(C(=O)CSc2ncccn2)CC1 | inconclusive: -42.2%
Cc1cc(C)c2ccc3c(C)c(C)n(C)c3c2n1 | inconclusive: -48%
COCCC(=O)Nc1ccc2c(c1)CN(C(=O)CCSC)CC2 | inactive: -27.1%
Cc1cc(C)cc(NC(=O)c2cc(S(=O)(=O)N3CCC(C)CC3)cn2C)c1 | inactive: -0.653%
Cc1ccc(C(=O)/C=C2\NCCNC2=O)cc1 | inactive: 72.7%
CC(=O)/C(C#N)=C1\NC(=O)C(Cc2ccc(C)c(Cl)c2)S1 (stereo unspecified) | active: -92.5%
CC(C)=CCOc1ccc([C@@H]2COc3c(ccc4c3C=CC(C)(C)O4)C2)c(O)c1 | inconclusive: -57.1%
Cc1ccc2c(C)c(C(=O)N(C)C(C)c3ccon3)oc2c1C (stereo unspecified) | inactive: -2.92%
COc1cc(NC(=O)C(Cc2ccccc2)NS(=O)(=O)c2cccc3nsnc23)cc(OC)c1 (stereo unspecified) | inconclusive: -44.7%
Cc1ccccc1Cn1cccc(C(=O)Nc2nc3ccccc3s2)c1=O | active: -71.4%
CCOc1ccc(N(CC(=O)Nc2ccccc2CC)S(=O)(=O)c2c(C)noc2C)cc1 | active: -90.7%
NC(=O)c1ccccc1NC(=O)CN1CCN(Cc2ccc(Cl)cc2Cl)CC1 | inconclusive: -41.1%
O=[N+]([O-])c1cc(-c2ccc(/C=N/n3cnnc3)o2)ccc1Cl | inconclusive: -49.4%
CC(C(=O)Nc1ccccn1)(c1ccccc1)c1ccccc1 | inconclusive: -44.2%
O=C(c1ccc2c(c1)N(Cc1ccc(F)cc1)C(=O)c1ccccc1S2(=O)=O)N1CCN(Cc2ccccc2)CC1 | inconclusive: -41.5%
